For two molecules, binding results are on record in paper PMC3769348, “Secreted and Transmembrane 1A Is a Novel Co-Stimulatory Ligand” (PLoS ONE, 2013).

These are yes or no findings as the source states them, for the method shown. Some binding calls cover weakened binding; strength is not graded here. Where a sequence is shown, tags or fusion partners need not be part of it.

In experiment [1] the target is SECTM1B-Fc fusion protein (extracellular domain of murine SECTM1B fused to aglycosyl human IgG1 Fc) (mouse) (UniProt Q9JL59). Put plainly: SPR; BIAcore 3000, 25°C, CM5 chip; Fc fusion proteins held on separate flow cells by mouse anti-human IgG (SBH2) on amine-coupled rabbit anti-mouse antibody; Fc fusion proteins at 25 µM injected in HEPES-buffered saline pH 7.4 at 5 µl per minute; both purified. (In general: SPR reads the build-up and loss of mass on a sensor chip optically.)

Experiment [2] concerns the target T1, GITR (TNFRSF18), endogenous in activated CD7-/- mouse T cells (mouse (endogenous in C57BL/6 CD7-/- splenocytes and CD4+ T cells)) (UniProt O35714).
T1 sequence: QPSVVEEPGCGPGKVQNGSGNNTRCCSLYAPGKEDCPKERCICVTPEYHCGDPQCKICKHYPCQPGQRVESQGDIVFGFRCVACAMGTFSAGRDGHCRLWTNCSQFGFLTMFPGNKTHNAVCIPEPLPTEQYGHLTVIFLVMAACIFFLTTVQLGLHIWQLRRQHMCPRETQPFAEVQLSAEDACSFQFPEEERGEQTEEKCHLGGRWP
Briefly: flow cytometry on cells; APC-conjugated SECTM1A-Fc on anti-CD3 and anti-CD28 activated CD7-/- CD4+ T cells pre-incubated for 1 hour with GITRL-Fc or hIL7R-Fc (negative control), or with rat anti-GITR (YGITR-765) or rat IgG2b isotype control; only the binder purified. (Flow cytometry measures light scatter and fluorescence of single cells or particles in a stream.)

B1: SECTM1B-Fc fusion protein (extracellular domain of murine SECTM1B fused to aglycosyl human IgG1 Fc) (Fc fusion, UniProt Q9JL59 29-160)
chain: HNDVWDEPCCTEHEVSVNRGSRVVMACNISNNLRDVTIELVTSEKTSIIFNHTPPGNYSKDSWQLHIQGVQAQLVITDAQDKHSGNYSWKLHGFQAEFKNFNLTVNAADRQKTEDLPVTKVPDKPPTAVRTE
modifications: N-glycosylated
Consider B1, for which, in experiment [1], the binding result was “no binding (tested: 25 µM)”.

B2: GITRL-Fc fusion protein (Fc fusion, UniProt Q7TS55 42-173)
chain: TSLKPTAIESCMVKFELSSSKWHMTSPKPHCVNTTSDGKLKILQSGTYLIYGQVIPVDKKYIKDNAPFVVQIYKKNDVLQTLMNDFQILPIGGVYELHAGDNIYLKFNSKDHIQKTNTYWGIILMPDLPFIS
With B2, in experiment [2], the binding result is on record as “binds”.
